According to the supplement of paper PMC10849652:
This is one part of the list. Residues, ends and D or L forms follow the SMILES beside them. *: point of attachment. Cbz = O=C(OCc1ccccc1)*

Protein sequences, listed by entry. Tags and fused reporters are not part of them. Lines headed by an entry give the natural chain unless they say otherwise; changes in a name come on top.
UniProt P49588, whole entry, looked up: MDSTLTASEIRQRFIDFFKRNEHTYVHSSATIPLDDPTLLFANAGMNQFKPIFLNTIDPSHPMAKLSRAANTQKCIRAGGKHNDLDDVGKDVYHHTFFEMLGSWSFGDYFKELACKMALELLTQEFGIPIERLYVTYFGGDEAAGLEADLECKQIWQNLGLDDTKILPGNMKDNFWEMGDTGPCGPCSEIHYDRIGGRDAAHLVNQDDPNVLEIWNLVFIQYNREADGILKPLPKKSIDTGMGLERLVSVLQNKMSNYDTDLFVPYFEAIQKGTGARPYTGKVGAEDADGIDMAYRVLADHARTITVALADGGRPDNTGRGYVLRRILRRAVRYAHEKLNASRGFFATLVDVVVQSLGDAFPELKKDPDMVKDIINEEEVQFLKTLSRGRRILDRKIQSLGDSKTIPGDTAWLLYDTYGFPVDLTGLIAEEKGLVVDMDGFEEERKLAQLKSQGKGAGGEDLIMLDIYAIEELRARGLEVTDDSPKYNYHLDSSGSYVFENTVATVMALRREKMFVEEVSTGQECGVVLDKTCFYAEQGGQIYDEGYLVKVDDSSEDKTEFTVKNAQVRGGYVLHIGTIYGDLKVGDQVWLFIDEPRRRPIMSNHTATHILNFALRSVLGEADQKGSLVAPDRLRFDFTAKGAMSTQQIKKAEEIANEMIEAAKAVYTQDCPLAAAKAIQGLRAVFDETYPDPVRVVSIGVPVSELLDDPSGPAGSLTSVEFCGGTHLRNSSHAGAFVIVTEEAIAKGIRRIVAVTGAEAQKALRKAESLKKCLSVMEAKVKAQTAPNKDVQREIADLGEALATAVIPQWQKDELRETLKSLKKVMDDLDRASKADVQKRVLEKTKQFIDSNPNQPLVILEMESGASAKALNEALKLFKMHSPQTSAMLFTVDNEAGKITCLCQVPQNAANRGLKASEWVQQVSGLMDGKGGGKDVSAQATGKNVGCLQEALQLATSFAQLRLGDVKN
UniProt Q9ULC5: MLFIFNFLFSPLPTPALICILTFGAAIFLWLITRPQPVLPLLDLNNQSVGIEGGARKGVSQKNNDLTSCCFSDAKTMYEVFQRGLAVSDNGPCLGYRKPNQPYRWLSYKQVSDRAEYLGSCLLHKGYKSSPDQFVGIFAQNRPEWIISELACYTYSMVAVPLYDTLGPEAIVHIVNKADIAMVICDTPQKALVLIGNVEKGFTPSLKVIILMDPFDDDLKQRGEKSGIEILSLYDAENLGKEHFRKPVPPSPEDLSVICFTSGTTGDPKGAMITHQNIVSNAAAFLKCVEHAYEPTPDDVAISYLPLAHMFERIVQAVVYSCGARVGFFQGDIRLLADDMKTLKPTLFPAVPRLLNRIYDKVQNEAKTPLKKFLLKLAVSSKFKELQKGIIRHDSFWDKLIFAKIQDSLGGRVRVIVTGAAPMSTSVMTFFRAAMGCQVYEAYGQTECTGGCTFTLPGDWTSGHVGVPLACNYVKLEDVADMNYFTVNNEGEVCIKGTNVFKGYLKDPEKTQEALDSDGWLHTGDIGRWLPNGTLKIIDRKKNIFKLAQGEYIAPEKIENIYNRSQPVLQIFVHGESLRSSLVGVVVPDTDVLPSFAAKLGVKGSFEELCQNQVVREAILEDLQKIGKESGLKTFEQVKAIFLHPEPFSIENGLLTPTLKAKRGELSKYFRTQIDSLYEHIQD
UniProt P21399: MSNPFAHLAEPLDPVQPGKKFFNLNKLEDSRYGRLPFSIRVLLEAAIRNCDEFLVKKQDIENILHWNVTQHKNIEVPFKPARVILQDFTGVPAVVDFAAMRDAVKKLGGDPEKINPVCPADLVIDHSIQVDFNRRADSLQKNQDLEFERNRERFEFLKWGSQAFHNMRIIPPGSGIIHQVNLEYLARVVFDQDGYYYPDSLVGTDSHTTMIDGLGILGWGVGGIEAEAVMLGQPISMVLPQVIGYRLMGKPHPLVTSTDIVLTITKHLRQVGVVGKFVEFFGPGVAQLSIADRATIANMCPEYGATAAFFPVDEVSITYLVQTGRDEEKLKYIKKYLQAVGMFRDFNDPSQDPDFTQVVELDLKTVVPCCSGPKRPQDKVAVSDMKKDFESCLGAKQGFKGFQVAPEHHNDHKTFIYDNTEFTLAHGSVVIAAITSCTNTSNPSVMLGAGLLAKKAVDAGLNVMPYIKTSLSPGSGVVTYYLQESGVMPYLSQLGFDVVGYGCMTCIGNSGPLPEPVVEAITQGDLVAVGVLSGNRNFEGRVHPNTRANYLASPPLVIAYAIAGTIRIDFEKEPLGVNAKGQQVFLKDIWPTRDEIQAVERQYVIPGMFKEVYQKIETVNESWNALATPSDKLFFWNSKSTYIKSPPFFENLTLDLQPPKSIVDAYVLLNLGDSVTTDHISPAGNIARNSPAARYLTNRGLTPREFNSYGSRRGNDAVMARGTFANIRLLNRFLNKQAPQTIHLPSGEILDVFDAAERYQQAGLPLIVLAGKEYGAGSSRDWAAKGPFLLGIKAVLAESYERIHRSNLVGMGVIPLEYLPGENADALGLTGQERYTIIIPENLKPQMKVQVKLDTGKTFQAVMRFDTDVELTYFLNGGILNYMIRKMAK
UniProt O96019, whole entry, looked up: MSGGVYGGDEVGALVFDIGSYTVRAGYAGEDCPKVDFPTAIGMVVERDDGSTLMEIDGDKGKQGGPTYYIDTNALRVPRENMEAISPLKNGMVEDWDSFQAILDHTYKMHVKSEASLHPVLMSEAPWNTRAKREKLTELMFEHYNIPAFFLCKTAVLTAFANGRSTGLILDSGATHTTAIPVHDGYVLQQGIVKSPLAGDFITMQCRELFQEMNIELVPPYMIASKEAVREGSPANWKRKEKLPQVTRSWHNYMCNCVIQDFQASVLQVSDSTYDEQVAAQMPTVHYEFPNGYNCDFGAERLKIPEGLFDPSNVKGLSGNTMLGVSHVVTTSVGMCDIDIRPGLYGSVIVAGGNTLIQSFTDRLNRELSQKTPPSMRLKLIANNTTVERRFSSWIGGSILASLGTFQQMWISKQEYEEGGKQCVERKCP
UniProt Q6PD74: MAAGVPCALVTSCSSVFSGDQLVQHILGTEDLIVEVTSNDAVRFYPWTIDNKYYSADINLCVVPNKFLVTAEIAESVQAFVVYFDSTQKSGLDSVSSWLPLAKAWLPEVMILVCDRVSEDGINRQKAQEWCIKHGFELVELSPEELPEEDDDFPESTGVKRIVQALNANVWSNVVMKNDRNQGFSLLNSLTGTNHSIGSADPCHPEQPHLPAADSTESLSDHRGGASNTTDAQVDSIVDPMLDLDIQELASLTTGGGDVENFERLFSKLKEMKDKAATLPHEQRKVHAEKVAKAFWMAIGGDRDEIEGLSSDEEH
UniProt O14678: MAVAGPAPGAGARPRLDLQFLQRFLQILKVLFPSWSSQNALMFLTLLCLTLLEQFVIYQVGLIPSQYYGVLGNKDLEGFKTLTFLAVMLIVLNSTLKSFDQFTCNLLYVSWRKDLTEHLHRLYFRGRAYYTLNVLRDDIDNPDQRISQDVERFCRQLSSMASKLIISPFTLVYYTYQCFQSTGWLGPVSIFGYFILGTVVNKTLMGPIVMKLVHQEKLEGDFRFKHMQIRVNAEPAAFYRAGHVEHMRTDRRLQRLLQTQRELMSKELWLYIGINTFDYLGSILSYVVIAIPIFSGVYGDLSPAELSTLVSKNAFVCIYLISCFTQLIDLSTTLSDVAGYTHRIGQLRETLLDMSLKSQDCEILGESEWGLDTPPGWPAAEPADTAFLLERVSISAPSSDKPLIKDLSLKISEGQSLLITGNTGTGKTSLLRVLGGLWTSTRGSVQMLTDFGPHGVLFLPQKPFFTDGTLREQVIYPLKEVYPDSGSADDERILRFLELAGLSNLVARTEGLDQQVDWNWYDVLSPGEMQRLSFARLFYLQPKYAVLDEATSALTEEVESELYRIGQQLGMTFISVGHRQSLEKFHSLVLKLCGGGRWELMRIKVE
UniProt Q9BTE6: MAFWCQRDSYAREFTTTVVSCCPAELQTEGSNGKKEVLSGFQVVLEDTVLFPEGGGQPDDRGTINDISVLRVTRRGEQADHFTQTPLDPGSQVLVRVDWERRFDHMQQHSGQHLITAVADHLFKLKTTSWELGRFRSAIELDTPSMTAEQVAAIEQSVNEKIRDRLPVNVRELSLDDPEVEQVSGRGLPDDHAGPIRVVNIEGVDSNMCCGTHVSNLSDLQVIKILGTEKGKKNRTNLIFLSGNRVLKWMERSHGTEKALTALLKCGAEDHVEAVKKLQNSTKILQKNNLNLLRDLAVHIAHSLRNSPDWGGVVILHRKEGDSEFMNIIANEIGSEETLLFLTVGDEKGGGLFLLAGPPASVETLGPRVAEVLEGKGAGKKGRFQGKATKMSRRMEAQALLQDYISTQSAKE
UniProt Q5JTZ9, whole entry, looked up: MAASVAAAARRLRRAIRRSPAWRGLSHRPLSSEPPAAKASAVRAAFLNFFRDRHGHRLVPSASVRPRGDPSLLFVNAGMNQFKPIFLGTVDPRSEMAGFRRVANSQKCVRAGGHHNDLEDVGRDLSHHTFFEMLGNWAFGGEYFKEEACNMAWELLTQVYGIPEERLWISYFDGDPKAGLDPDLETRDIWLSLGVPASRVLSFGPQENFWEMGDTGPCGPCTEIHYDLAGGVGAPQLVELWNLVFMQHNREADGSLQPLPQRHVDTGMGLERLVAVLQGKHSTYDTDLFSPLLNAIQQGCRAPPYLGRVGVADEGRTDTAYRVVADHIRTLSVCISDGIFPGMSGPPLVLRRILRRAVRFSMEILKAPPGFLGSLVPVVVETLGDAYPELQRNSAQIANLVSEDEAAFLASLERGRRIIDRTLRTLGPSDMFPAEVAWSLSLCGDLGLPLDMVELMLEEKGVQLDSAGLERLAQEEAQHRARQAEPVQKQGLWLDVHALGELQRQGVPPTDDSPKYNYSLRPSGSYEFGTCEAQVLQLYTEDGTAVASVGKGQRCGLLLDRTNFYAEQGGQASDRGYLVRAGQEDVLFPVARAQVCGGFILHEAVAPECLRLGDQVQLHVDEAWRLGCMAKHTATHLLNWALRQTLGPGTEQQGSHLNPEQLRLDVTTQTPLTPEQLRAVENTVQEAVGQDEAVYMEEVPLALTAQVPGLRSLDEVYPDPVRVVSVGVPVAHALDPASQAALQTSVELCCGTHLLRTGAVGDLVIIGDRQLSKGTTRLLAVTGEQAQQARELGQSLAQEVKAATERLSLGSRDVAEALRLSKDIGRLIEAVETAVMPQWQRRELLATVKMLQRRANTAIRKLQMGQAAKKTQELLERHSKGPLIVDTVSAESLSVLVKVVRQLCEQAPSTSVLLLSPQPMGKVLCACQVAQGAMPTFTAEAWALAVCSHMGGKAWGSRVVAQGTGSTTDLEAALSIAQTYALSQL
UniProt P24666: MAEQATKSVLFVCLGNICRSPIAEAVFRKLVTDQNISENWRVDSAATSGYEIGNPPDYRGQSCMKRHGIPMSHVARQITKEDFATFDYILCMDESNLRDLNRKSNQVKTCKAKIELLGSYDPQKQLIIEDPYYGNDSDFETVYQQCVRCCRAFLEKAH
UniProt P00519, whole entry, looked up: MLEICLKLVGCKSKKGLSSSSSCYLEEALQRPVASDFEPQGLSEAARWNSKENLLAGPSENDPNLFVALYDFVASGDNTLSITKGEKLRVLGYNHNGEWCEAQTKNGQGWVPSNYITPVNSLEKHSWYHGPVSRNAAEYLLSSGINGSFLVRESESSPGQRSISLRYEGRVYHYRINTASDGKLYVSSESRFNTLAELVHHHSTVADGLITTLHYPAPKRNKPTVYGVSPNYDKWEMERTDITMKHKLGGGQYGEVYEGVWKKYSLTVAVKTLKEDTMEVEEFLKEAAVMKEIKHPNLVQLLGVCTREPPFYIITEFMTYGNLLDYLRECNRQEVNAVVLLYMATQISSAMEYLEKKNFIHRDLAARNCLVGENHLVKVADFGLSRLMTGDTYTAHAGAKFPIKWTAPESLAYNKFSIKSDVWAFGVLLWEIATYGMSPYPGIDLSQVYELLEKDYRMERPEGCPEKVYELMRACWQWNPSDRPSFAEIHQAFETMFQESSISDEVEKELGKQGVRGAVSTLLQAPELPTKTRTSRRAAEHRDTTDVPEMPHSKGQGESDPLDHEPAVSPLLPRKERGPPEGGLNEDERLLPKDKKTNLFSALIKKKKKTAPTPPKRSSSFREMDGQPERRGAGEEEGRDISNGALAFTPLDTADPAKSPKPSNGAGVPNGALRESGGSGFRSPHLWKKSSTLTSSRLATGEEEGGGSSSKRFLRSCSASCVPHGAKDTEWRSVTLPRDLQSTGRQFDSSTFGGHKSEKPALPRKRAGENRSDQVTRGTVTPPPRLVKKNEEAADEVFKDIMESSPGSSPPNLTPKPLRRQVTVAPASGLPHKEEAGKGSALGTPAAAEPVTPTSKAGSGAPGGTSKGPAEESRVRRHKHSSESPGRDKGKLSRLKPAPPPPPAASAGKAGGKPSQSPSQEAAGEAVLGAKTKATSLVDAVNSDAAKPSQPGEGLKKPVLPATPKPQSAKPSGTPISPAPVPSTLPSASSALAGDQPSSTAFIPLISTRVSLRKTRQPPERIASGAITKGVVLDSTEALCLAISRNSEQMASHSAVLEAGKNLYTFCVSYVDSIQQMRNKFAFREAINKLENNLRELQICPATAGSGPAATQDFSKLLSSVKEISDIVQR

Experiments:
Assay in all cases: log2 fold change, soluble protein after heating vs DMSO (PISA); higher = thermal stabilisation; K562 cells, 10 uM, 30 min; active = over 0.2 and 3.5 SD of the protein, either way, in both replicates (recomputed)
erlotinib = compound: C#Cc1cccc(Nc2ncnc3cc(OCCOC)c(OCCOC)cc23)c1 [erlotinib]
How it was run: (§1)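 K562 cells at 2×10^6 cells/mL were treated for 30 min with 10 μM compound, and aliquots were heated for 3 min over 48°C-58°C before pooling. Extraction used PBS with 0.5% NP-40 at 4°C, and soluble protein was the supernatant after 21,000xg for 90 min, measured by TMTpro 16plex LC-MS/MS with channel sums equalised. Thermal stability values, relative to control samples and from duplicates, are log2 fold changes.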

[1] = compound: C/C(=N\NC(=O)C1=CC(=CC=C1)S(=O)(=O)N2CCOCC2)/C3=C(C=CC(=C3)Cl)O
How it was run: as §1

[2] = compound: C1=CC(=C(C=C1Cl)C2=NC3=NC=CN=C3C(=N2)NC4=CC=NC=C4)F
How it was run: as §1

[3] = compound: C1=CC(=CC=C1C2=NC3=C(N2)C=C(C=C3)C(=O)N)OC4=CC=C(C=C4)Cl
How it was run: as §1

[4] = compound: C1=CC2=C(C=CC(=C2)/C=C\3/C(=O)NC(=NCC4=CC=CS4)S3)N=C1
How it was run: as §1

[5] = compound: C1=CC2=NC=CN=C2C=C1/C=C/3\C(=O)NC(=O)S3
How it was run: as §1

[6] = compound: C1=CC=C(C=C1)C2=NC(=C(N2)C3=CC=NC=C3)C4=CC(=C(C=C4)Cl)O
How it was run: as §1

[7] = compound: C1=CC=C2C(=C1)C3=NNC4=CC=CC(=C43)C2=O
How it was run: as §1

[8] = compound: C1CCN(C1)C(=O)NC2=CC=CC(=C2)NC3=NC=C(C(=N3)NCCC4=CN=CN4)Br
How it was run: as §1

[9] = compound: C1CN(CCC1(CC2=CC=C(C=C2)Cl)N)C3=NC=NC4=C3C=CN4
How it was run: as §1

IRAK-1-4 Inhibitor I = compound: C1COCCN1CCN2C3=CC=CC=C3N=C2NC(=O)C4=CC(=CC=C4)[N+](=O)[O-] [IRAK-1-4 Inhibitor I]
How it was run: as §1

ibrutinib = compound: C=CC(=O)N1CCC[C@@H](n2nc(-c3ccc(Oc4ccccc4)cc3)c3c(N)ncnc32)C1 [ibrutinib]
How it was run: as §1

[10] = compound: CC(=O)c1cnc2ccc(-c3cc(Cl)c(O)c(Cl)c3)nc2c1N[C@H]1CC[C@H](CN(C)C)CC1
How it was run: as §1

ralimetinib = compound: CC(C)(C)Cn1c(N)nc2ccc(-c3[nH]c(C(C)(C)C)nc3-c3ccc(F)cc3)nc21 [ralimetinib]
How it was run: as §1

[11] = compound: CC(C)(O)CC(=O)NCCn1ccc2ncnc(Nc3ccc(Oc4cccc(C(F)(F)F)c4)c(Cl)c3)c21
How it was run: as §1

[12] = compound: CC(C)C1=C2N=C(C=C(N2N=C1)NCC3=CC=CC=C3)NCCCCCCN
How it was run: as §1

[13] = compound: CC(C)C[C@@H](C=O)NC(=O)[C@H](CC(C)C)NC(=O)[C@H](CC(C)C)NC(=O)OCc1ccccc1
How it was run: as §1

pinometostat = compound: CC(C)N(C[C@H]1O[C@@H](n2cnc3c(N)ncnc32)[C@H](O)[C@@H]1O)[C@H]1C[C@@H](CCc2nc3cc(C(C)(C)C)ccc3[nH]2)C1 [pinometostat]
How it was run: as §1

[14] = compound: CC1=C(C(CC(=O)N1)C2=CC=C(C=C2)C(F)(F)F)C(=O)NC3=C(C=C4C(=C3)C=NN4)F
How it was run: as §1

[15] = compound: CC1=C(C2=C(C=C1)C(=O)C3=CC=CC=C3N2CCCN)C
How it was run: as §1

| Target | log2 fold change (erlotinib) | log2 fold change [1] | log2 fold change [2] | log2 fold change [3] | log2 fold change [4] | log2 fold change [5] | log2 fold change [6] | log2 fold change [7] | log2 fold change [8] | log2 fold change [9] | log2 fold change (IRAK-1-4 Inhibitor I) | log2 fold change (ibrutinib) | log2 fold change [10] | log2 fold change (ralimetinib) | log2 fold change [11] | log2 fold change [12] | log2 fold change [13] | log2 fold change (pinometostat) | log2 fold change [14] | log2 fold change [15] |
| --- | --- | --- | --- | --- | --- | --- | --- | --- | --- | --- | --- | --- | --- | --- | --- | --- | --- | --- | --- | --- |
| AARS (UniProt P49588) | inactive: -0.003 | inactive: 0.009 | inactive: 0.046 | inactive: 0.002 | inactive: 0.01 | inactive: -0.018 | inactive: 0.009 | inactive: 0.009 | inactive: 0.011 | inactive: 0.003 | inactive: 0.041 | inactive: 0.004 | inactive: 0.022 | inactive: -0.044 | inactive: -0.059 | inactive: -0.051 | inactive: 0.008 | inactive: -0.033 | inactive: -0.016 | inactive: 0.017 |
| ACSL5 isoform 3 (UniProt Q9ULC5) | inactive: 0.044 | inactive: 0.039 | inactive: -0.021 | inactive: 0.028 | inactive: -0.029 | inactive: -0.011 | inactive: -0.007 | inactive: 0.047 | inactive: -0.003 | inactive: 0.061 | inactive: 0.02 | inactive: 0.03 | inactive: -0.017 | inactive: -0.03 | inactive: 0.014 | active: -0.354 | inactive: -0.001 | inactive: 0.095 |  | inactive: 0.088 |
| ACTA1 (UniProt P68133) | inactive: 0.01 | inactive: -0.029 | inactive: 0.027 | inactive: 0.001 | inactive: -0.011 | inactive: -0.015 | inactive: -0.052 | inactive: 0.011 | inactive: 0.025 | inactive: 0.064 | inactive: 0.071 | inactive: 0.027 | inactive: 0 | inactive: -0.032 | inactive: 0.034 | inactive: 0.092 | inactive: -0.053 | inactive: -0.041 | inactive: 0.015 | inactive: 0.007 |
| ABCC5 (UniProt O15440) | inactive: -0.027 | inactive: 0.035 | inactive: 0.064 | inactive: -0.004 | inactive: 0.059 | inactive: -0.048 | inactive: -0.014 | inactive: -0.071 | inactive: -0.037 | inactive: 0.129 | inactive: -0.035 | inactive: -0.082 | inactive: 0 | inactive: 0.001 | inactive: -0.121 | inactive: 0.119 | inactive: 0.046 | inactive: 0.086 |  | inactive: 0.116 |
| ACO1 (UniProt P21399) | inactive: 0.023 | inactive: 0.011 | inactive: 0.083 | inactive: -0.011 | inactive: -0.028 | inactive: -0.099 | inactive: 0.047 | inactive: 0.005 | inactive: 0.024 | inactive: 0.044 | inactive: 0.059 | inactive: 0.016 | inactive: 0.013 | inactive: 0.044 | inactive: -0.002 | inactive: 0.002 | inactive: -0.071 | inactive: -0.021 | inactive: -0.007 | inactive: -0.018 |
| ACTL6A (UniProt O96019) | inactive: -0.01 | inactive: 0.004 | inactive: 0 | inactive: 0.057 | inactive: 0.043 | inactive: 0.015 | inactive: 0.006 | inactive: 0.016 | inactive: -0.03 | inactive: 0.01 | inactive: 0.035 | inactive: 0.009 | inactive: -0.007 | inactive: -0.012 | inactive: -0.029 | inactive: 0.012 | inactive: -0.018 | inactive: 0.012 | inactive: -0.01 | inactive: 0.035 |
| AAGAB (UniProt Q6PD74) | inactive: 0.251 | inactive: 0.088 | inactive: 0.079 | inactive: -0.068 | inactive: -0.059 | inactive: 0.027 | inactive: 0.066 | inactive: 0.01 | inactive: 0.067 | inactive: 0.054 | inactive: -0.016 | inactive: 0.026 | inactive: 0.077 | inactive: 0.065 | inactive: -0.146 | inactive: -0.099 | inactive: 0 | inactive: 0.147 |  | inactive: -0.003 |
| ABCD4 (UniProt O14678) | inactive: 0.016 | inactive: 0.103 | inactive: 0.043 | inactive: 0.066 | inactive: 0.136 | inactive: -0.124 | inactive: 0.084 | inactive: -0.022 | inactive: -0.092 | inactive: 0.184 | inactive: 0.177 | inactive: -0.182 | inactive: -0.17 | inactive: 0.108 | inactive: -0.113 | inactive: -0.319 | inactive: -0.088 | inactive: 0.064 | inactive: 0.091 | inactive: -0.053 |
| AAK1 (UniProt Q2M2I8) | inactive: -0.028 | inactive: -0.055 | inactive: 0.019 | inactive: 0.005 | inactive: 0.339 | inactive: 0.033 | inactive: 0.073 | inactive: 0.319 | inactive: 0.265 | inactive: -0.085 | inactive: -0.085 | inactive: 0.051 | inactive: 0.366 | inactive: 0.04 | inactive: 0 | inactive: -0.043 | inactive: -0.061 | inactive: -0.05 |  | inactive: -0.017 |
| ACTN4 (UniProt K7EJH8) | inactive: 0.06 | inactive: 0.013 | inactive: -0.061 | inactive: -0.028 | inactive: 0.042 | inactive: 0.032 | inactive: -0.009 | inactive: -0.037 | inactive: 0.024 | inactive: -0.004 | inactive: -0.083 | inactive: 0.014 | inactive: 0.052 | inactive: -0.081 | inactive: 0.04 | inactive: 0.042 | inactive: -0.017 | inactive: -0.028 |  | inactive: -0.025 |
| ACTR1B (UniProt P42025) | inactive: -0.13 | inactive: -0.048 | inactive: -0.145 | inactive: 0.041 | inactive: 0.02 | inactive: 0.002 | inactive: -0.037 | inactive: -0.017 | inactive: -0.02 | inactive: 0.011 | inactive: 0.066 | inactive: 0.003 | inactive: -0.041 | inactive: 0.07 | inactive: -0.065 | inactive: 0.042 | inactive: -0.071 | inactive: 0.003 |  | inactive: -0.013 |
| AARSD1 isoform 3 (UniProt Q9BTE6) | inactive: 0.05 | active: -0.736 | inactive: 0.113 | inactive: -0.014 | inactive: -0.027 | inactive: 0.008 | inactive: -0.015 | inactive: 0.053 | inactive: -0.006 | inactive: -0.086 | inactive: 0.002 | inactive: -0.074 | inactive: 0.029 | inactive: -0.038 | inactive: -0.017 | inactive: -0.177 | inactive: 0.069 | inactive: -0.01 |  | inactive: -0.126 |
| AARS2 (UniProt Q5JTZ9) | inactive: 0.148 | inactive: -0.035 | inactive: 0.058 | inactive: -0.019 | inactive: 0.083 | inactive: 0.011 | inactive: 0.025 | inactive: 0.021 | inactive: -0.003 | inactive: 0.021 | inactive: 0 | inactive: -0.025 | inactive: -0.025 | inactive: -0.011 | inactive: -0.099 | inactive: -0.15 | inactive: -0.013 | inactive: 0.006 |  | inactive: 0.048 |
| ACP1 (UniProt P24666) | inactive: 0.149 | inactive: 0.06 | inactive: 0.035 | inactive: -0.066 | inactive: 0.224 | inactive: -0.059 |  | inactive: 0.109 | inactive: -0.001 | inactive: -0.015 | inactive: -0.027 | inactive: -0.073 | inactive: -0.083 |  | inactive: -0.238 | inactive: -0.071 |  | inactive: 0.107 |  | inactive: -0.087 |
| ABHD17A isoform 2 (UniProt Q96GS6) | inactive: 0 | inactive: -0.011 | inactive: -0.028 | inactive: 0.223 | inactive: 0.035 | inactive: 0.042 | inactive: 0.017 | inactive: 0.008 | inactive: -0.068 | inactive: 0.11 | inactive: 0.076 | inactive: 0.001 | inactive: -0.042 | inactive: -0.034 | inactive: -0.078 | inactive: -0.126 | inactive: 0.062 | inactive: 0.079 |  | inactive: 0.077 |
| ABL1 isoform 2 (UniProt P00519) | inactive: 0.096 | inactive: -0.022 | inactive: -0.107 | inactive: -0.102 | inactive: -0.079 | inactive: 0.066 | inactive: -0.094 | inactive: 0.101 | inactive: -0.162 | inactive: -0.077 |  | inactive: 0.089 | inactive: -0.168 | inactive: 0.103 | inactive: 0.048 | inactive: -0.149 | inactive: 0.039 |  |  | inactive: 0.004 |
| ABHD11 (UniProt Q8NFV4) | inactive: 0.03 | inactive: -0.041 | inactive: 0.078 | inactive: -0.033 | inactive: 0.113 | inactive: -0.067 | inactive: 0.045 | inactive: 0.043 | inactive: -0.079 | inactive: 0.01 | inactive: -0.031 | inactive: 0.031 | inactive: -0.007 | inactive: -0.123 | inactive: -0.006 | inactive: -0.043 | inactive: 0.068 | inactive: -0.027 |  | inactive: 0.026 |

A second format for some results above.
Target,log2 fold change (erlotinib),log2 fold change [1],log2 fold change [2],log2 fold change [3],log2 fold change [4],log2 fold change [5],log2 fold change [6],log2 fold change [7],log2 fold change [8],log2 fold change [9],log2 fold change (IRAK-1-4 Inhibitor I),log2 fold change (ibrutinib),log2 fold change [10],log2 fold change (ralimetinib),log2 fold change [11],log2 fold change [12],log2 fold change [13],log2 fold change (pinometostat),log2 fold change [14],log2 fold change [15]
ABL1 isoform 2 (UniProt P00519),inactive: 0.096,inactive: -0.022,inactive: -0.107,inactive: -0.102,inactive: -0.079,inactive: 0.066,inactive: -0.094,inactive: 0.101,inactive: -0.162,inactive: -0.077,,inactive: 0.089,inactive: -0.168,inactive: 0.103,inactive: 0.048,inactive: -0.149,inactive: 0.039,,,inactive: 0.004
ABHD11 (UniProt Q8NFV4),inactive: 0.03,inactive: -0.041,inactive: 0.078,inactive: -0.033,inactive: 0.113,inactive: -0.067,inactive: 0.045,inactive: 0.043,inactive: -0.079,inactive: 0.01,inactive: -0.031,inactive: 0.031,inactive: -0.007,inactive: -0.123,inactive: -0.006,inactive: -0.043,inactive: 0.068,inactive: -0.027,,inactive: 0.026
